No constants are given. Whether binding was seen depends on the method and setting. Binding seen in cells or lysates may run through a third protein. A yes stands for co-enrichment or nearness to the bait. Other partners may have been found. A no says only that the protein was not detected with the bait.
Key:
Assay in all cases: affinity purification with mass spectrometry; one-step and two-step bait fishing taken together (final data set; both methods applied to all baits); the place does not tell which of the two gave the result
[1] = biological target: CheD (Halobacterium salinarum R1 (DSM 671))
[2] = biological target: T1, CheF2 (Halobacterium salinarum R1 (DSM 671)) (UniProt B0R4J4)
T1 sequence: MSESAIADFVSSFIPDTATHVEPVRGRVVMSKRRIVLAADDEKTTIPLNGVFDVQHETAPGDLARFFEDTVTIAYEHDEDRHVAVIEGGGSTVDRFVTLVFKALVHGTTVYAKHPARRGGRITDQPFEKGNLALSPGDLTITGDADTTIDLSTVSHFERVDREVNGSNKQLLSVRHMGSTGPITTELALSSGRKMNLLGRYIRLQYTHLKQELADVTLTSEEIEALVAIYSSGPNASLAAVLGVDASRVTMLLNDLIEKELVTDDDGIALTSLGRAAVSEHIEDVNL

[3] = biological target: T2, CheF1 (Halobacterium salinarum R1 (DSM 671)) (UniProt B0R4J3)
T2 sequence: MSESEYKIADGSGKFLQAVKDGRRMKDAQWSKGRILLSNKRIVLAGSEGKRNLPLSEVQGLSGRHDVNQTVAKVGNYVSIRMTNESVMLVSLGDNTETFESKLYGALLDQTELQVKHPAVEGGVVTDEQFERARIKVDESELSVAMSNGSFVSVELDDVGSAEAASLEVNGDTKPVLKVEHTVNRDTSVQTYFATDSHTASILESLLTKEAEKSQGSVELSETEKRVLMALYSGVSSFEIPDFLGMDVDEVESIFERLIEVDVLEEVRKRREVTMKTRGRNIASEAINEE

- binding [1]: no binding
- binding [2]: no binding
- binding [3]: no binding
B1: Htr7 (receptor, UniProt B0R6A6 1-545)
chain: MSGAAVFVDAVVAPLGDAVGAIGFGAAAALGYRNYRDTDAEAAFWMAFTFASLLGVTWTVSLMLEKAGVATQIFNLATGPLMATTVAVFAIGGTATLAIVEDMEALVEERAQRRQEAEEERAEAERAREKAEQKQAEAERQTAEAESAKQDARERSAEIEQLAADLESQATEVGATLEAASDGDLTARVDATTDNAEIAEVATVVNDMLTTMERTIDEIQGFSTNVTTASREATAGAKEIQDASQTVSESVQEIAAGTDDQREQLESVAEEMDSYSATVEEVAATAQSVADTAADTTDVATAGKQTAEDAIDAIDAVQETMQTTVANVDALEDLTTEIDDIAELISDIAEQTNMLALNANIEAARAGSGGGSNGDGFAVVADEVKELATESQRSAKDIAELIEEVQSQTATTVEEIRVAEQRVNDGAAAVEETVDAFGAVTENIQETTDGVQEISQAMDEQAQRSERVVSSVDDIATISQATADRAENVSAASEEQTASITEVTSSLQSLAAQADTLEDRLNEFRTEATGTAHGEATDAPAGQSD
